Values of other authors in patent US20240189331A1, “NOVEL […] FILM FORMULATION” (INTELGENX CORP., priority 2021, published 2024).
At least one compound was matched to its structure with a doubt left.

Conditions: FIG. 1; cited from earlier work

CN(C)CCc1c[nH]c2cccc(OP(=O)(O)O)c12 [psilocybin, [3-(2-Dimethylaminoethyl)-1H-indol-4-yl]dihydrogen phosphate]
isoelectric point (pH where molecule is neutral, no net charge): ~3.9
